In US20040191812, “Target-dependent transcription using deletion mutants of N4 RNA polymerase” (published 2004):

Target: T1, N4 mini-vRNAP (His-tagged) (Bacteriophage N4) (UniProt Q859P9)
T1 sequence: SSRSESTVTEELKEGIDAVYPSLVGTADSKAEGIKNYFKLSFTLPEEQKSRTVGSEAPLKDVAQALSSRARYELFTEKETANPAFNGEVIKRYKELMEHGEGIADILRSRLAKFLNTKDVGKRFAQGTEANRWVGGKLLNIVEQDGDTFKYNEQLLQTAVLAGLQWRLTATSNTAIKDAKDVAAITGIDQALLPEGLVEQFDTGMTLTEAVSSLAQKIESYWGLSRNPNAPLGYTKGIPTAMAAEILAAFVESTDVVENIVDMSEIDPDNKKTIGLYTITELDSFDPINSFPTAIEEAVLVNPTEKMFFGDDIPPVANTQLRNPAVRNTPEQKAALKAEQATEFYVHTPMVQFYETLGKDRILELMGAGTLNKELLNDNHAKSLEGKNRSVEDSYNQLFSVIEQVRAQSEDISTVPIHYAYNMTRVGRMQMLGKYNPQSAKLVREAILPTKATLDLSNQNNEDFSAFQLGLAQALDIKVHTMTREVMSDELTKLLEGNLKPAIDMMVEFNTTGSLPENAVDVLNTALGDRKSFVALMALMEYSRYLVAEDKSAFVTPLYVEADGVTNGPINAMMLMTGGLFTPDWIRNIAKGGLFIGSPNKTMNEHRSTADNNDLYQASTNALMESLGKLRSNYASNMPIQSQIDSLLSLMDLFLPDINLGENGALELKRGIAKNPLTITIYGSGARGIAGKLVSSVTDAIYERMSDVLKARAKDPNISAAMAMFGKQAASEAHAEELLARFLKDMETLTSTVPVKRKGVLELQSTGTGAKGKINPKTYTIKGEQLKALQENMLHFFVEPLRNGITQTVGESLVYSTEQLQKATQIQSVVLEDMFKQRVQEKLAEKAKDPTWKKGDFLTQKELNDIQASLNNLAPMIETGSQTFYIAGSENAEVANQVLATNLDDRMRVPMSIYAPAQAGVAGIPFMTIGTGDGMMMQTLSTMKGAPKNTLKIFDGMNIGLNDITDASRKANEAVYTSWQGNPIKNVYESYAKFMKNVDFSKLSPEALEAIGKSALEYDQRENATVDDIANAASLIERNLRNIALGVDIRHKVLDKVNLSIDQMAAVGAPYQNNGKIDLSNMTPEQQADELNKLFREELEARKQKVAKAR
Assay: activity assay
Conditions: purified recombinant protein, protein details: N-terminal hexahistidine (pBAD), single-stranded DNA

## TCCCACACAAAACCTTAACATTTCATACACCATTCCATCCATTACTTCATCCAAAAGAAGCGGAGCTTC [no G ssDNA template]
Transcription template in C misincorporation assay, about 1/(4x10^4), variant of control ssDNA template
  activity on this sequence: active

## ACCCAGACAAAAGGAAAAGAAAACAAACAGGAAAGGAAGCAAAACAACAACCAAAAGAAGCGGAGCTTC [no T ssDNA template]
Transcription template in A misincorporation assay, about 1/(2x10^4), variant of control ssDNA template
  activity on this sequence: active

## TCCCAGACAAAAGGTTAAGATTTCATACAGGATTGGATGCATTACTTCATCCAAAAGAAGCGGAGCTTC [control ssDNA template]
Transcription with UTP, digoxigenin-UTP or biotin-UTP
  activity on this sequence: active

## TGGGAGAGAAAAGGTTAAGATTTGATAGAGGATTGGATGGATTAGTTGATGGAAAAGAAGCGGAGCTTC [no C ssDNA template]
Transcription template in G misincorporation assay, about 1/(5x10^4), variant of control ssDNA template
  activity on this sequence: active

## TCCCTGTCTTTTGGTTTTGTTTTCTTTCTGGTTTGGTTGCTTTTCTTCTTCCAAAAGAAGCGGAGCTTC [no A ssDNA template]
Transcription template in U misincorporation assay, about 1/(5x10^4), variant of control ssDNA template
  activity on this sequence: active

Protein sequences can lack the tags named with them.
